Results as given in publication PMC9508819, “Rbp95 binds to 25S rRNA helix H95 and cooperates with the Npa1 complex during early pre-60S particle maturation”.
These are yes or no findings as the source states them, for the method shown. Binding seen in cells or lysates may run through a third protein. These calls come from enrichment with a bait or labelling near it, and not all partners need be listed.

By UniProt entry, the sequences of proteins in these tests, tags left out. Where a name states a change or a piece, a line headed by the entry shows the natural chain unless it says otherwise.
UniProt Q05022: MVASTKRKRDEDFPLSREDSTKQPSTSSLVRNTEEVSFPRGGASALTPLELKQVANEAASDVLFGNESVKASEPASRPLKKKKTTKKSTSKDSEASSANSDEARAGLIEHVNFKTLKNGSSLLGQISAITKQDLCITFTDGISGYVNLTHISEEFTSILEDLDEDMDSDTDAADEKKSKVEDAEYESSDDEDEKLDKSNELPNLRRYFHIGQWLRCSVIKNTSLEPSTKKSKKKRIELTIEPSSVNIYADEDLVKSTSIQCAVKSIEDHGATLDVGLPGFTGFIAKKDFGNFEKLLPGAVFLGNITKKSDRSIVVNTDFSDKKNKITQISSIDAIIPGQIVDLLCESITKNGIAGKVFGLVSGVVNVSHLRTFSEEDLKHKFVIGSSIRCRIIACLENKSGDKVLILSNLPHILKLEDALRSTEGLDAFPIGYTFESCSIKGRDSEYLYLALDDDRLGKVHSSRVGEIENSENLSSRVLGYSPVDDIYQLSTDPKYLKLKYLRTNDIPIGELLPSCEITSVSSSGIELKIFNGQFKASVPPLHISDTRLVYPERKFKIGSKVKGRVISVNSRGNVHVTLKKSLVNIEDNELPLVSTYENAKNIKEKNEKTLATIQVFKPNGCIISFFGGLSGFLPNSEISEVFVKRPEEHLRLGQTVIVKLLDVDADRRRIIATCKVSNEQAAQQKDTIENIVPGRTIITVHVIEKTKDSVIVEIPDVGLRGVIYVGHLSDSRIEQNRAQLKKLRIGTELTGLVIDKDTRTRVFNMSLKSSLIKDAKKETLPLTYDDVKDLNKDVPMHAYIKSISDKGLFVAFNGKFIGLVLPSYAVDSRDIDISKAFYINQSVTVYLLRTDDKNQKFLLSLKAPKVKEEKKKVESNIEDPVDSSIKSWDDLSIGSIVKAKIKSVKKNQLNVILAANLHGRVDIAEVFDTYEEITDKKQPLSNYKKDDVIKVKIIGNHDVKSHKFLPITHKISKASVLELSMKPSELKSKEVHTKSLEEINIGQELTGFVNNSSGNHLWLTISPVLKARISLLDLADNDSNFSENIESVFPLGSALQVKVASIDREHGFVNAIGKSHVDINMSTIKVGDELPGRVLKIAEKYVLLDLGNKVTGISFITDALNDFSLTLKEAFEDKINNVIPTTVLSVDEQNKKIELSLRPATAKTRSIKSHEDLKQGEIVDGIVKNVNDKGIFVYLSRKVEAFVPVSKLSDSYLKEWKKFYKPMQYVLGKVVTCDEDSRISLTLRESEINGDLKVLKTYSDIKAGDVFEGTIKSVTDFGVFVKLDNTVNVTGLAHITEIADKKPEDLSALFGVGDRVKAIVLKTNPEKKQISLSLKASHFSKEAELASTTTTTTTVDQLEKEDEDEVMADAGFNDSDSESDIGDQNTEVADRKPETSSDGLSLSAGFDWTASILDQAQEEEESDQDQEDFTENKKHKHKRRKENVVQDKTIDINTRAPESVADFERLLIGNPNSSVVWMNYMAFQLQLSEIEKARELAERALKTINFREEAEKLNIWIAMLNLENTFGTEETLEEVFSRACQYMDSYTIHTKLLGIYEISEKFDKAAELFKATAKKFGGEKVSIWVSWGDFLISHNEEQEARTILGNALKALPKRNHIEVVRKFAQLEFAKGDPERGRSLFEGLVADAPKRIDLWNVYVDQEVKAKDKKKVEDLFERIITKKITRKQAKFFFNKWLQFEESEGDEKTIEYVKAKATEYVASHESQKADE
UniProt P17076: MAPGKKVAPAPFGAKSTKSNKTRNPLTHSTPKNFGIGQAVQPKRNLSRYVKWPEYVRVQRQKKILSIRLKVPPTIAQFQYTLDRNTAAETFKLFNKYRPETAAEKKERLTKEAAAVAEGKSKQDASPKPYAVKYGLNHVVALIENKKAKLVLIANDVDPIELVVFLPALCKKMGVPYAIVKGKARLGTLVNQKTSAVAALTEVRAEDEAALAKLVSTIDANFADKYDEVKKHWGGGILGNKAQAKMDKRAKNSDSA
UniProt P33322: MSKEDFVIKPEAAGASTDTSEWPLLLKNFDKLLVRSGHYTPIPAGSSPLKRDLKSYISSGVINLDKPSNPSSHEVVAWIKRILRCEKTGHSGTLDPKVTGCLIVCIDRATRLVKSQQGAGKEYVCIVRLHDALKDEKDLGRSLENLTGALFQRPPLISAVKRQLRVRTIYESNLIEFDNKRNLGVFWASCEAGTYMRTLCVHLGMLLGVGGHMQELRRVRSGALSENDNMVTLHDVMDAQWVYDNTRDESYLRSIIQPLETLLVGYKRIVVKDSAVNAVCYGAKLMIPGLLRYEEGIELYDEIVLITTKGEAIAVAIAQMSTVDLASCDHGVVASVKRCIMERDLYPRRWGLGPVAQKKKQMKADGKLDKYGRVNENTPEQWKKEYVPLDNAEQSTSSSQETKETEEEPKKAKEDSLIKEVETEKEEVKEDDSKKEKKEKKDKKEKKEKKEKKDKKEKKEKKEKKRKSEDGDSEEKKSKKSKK
UniProt P15646: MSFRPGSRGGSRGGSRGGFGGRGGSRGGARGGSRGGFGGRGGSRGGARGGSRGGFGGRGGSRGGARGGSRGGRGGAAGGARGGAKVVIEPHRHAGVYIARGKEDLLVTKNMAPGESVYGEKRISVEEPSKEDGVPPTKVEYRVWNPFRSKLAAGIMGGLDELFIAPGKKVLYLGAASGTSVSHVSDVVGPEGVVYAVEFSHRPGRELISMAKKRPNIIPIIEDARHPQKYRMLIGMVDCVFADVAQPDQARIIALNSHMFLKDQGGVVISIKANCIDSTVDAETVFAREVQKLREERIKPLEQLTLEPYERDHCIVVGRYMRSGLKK
UniProt Q12499: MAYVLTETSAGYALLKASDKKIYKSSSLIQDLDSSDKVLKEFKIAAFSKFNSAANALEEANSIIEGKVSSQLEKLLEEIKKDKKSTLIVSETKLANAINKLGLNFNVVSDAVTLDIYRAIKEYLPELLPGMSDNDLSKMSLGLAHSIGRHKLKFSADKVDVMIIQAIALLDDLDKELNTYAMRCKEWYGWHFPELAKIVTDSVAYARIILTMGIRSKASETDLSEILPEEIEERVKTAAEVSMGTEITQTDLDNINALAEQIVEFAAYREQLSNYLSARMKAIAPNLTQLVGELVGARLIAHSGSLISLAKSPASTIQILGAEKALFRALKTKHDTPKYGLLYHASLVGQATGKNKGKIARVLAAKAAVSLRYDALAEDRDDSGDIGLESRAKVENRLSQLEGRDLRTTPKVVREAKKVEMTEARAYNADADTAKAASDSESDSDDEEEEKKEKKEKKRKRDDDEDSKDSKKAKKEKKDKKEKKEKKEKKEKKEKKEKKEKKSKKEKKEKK

B1: Rrp14 (protein, UniProt P36080 1-434)
chain: MSNSLEERLRANSSAFDGLLALIPAKYYYDEKSQEQWKAKKKTKEQSKNDKLKKLDPEQRDDETSSTLEVMKKKEKDAKPVVLPGEKFKHMKMQKQKEATSKVEGDSDLNVEVNDPMIIAPDEDEEEEEDIKVIFDDEGNEIPLESKKDTTEPDRSVEKKSITEEEKLQRKKNLEALRSKLQAKISDMKSKRKAPGSREAILAQRKRKEELKKRKRLESEQEQDQDEIASDSDMEDIDSDLENNSKKRFKKGKKDSEINADGVMFQNIIFDDGARATSDLQRLRKAGRTKGPAKNDVKSHLKLLEAKKNKMEAKDELEQIKQKEKEKWQKAMLQAEGIKIRDDEKLLRKAIKRKEAQKRKSAIEWSERKRVVEDTISERQKRREENLRIRKDNKGKKRNKQEKMKRKYVGSAVPKKRAGFEGRLKTGKKKGGPK
B2: Rex4 (enzyme, UniProt Q08237 1-289)
chain: MALSSNWQALLASESNPTSNGKNKQSNRKIRNVKKVSKTVNVSSTTQYAPRKRKNGSKIMDMVYNMNKEISKHEKDKLEGKVFEFNPNKANTSTTIKEPVKVGISEDTRINSNKSKEIGKYIAMDCEFVGVGPEGKESALARISIVNYFGHVVLDEFVKPREKVVEWRTWVSGIKPEHMKNAITFKEAQKKTADILEGRILVGHALKHDLEALMLSHPKSLLRDTSRHLPFRKLYAKGKTPSLKKLTREVLKISIQEGEHSSVEDARATMLLYKKEKTEFEKIHRNTFN
B3: Upa1 (Ygr283c) (protein, UniProt P53336 1-341)
chain: MAVKHKSESLKHEEGAAKKAKTGLLKLKKIMDIESNVVKYSICIPTTVIDNCNNLEQVTFTAYQIARTAVLFNVQEIIVLDQSKDKKHEKKSRSKETISDCLLLATLLQYFVTPPNLLDTTFKKKNKLYLKCASTFPPLNQLPFMNASAEQHYKEGLSIARDSSKGKSDDALTNLVYIGKNQIITLSNQNIPNTARVTVDTERKEVVSPIDAYKGKPLGYHVRMASTLNEVSEGYTKIVWVNSGDFHYDEELSKYHKVETKLPYIAKLKKSSTSEKPCNILLIFGKWGHLKRCFRRSDLESSSLHHYFSGQLQFPASVPQGNIPIQDSLPIALTMFQRWAS
B4: Upa2 (Ymr310c) (protein, UniProt Q04867 1-317)
chain: MSSTRKFKKVEKPLSQTRHYSLCIPTTLVSDCRNLSQITHKVYQVAKFASLFNVSEVVILEDNSQVDATKKKISTAKLILALLQYFVTPPYLRNTVFNEKFRPYLTAASKLPRLSTLPFTRYQKQDHGRYREGLTIKMQKPTLARKKIGKVFKQTKYINIGKSKALALQSQLVPINARVTIDTITRKIVSPQEAYGDFTGLDSQYGYYTRIASSFTDLFMKGPLKEGYTQSVYVPLTTRDTSIPELSSLPTAETNPHILLVFSTWDTLARAFKLDQDQFVDCQGPQEFFDAQLPCPVSNSDVADAIPMTLTTLSTVF
B5: Nop13 (protein, UniProt P53883 1-403)
chain: MSETELSKEDAVTKKDNEEQVKKALLDPTKKRKAEDEIEIDLKSSIPLSKKQKRLLRRGKVTLEELNAKYNIDPKSIEEYKEDAEKKKSGASEKDAQGEESTINTPTGDESGEVVKKKKKDENKYGVWIGNLSFDTTKDDLVRFFIAKTKDNEDEKSRVTEQDITRLSMPRVAAKNSNAMKNKGFCYMFFKNVEQMKAVLELSESHLNGRNMLIKDSENYSGRPDKDDLVAMSKNPPSRILFVGNLSFDVTDDLLRKHFQHCGDIVKIRMATFEDSGKCKGFAFIDFKNEEGSTNALKDKSCRKIAGRPLRMEYGEDRSKRQVRKKVENVSRNNSSSFDISNNKGYDRAGQDNGSKPEYKRSNANRRPPVDSNNRTKSSVALATAQRGSAAIVPSQGKKVKFD
B6: Dbp9 (enzyme, UniProt Q06218 1-594)
chain: MSYEKKSVEGAYIDDSTTFEAFHLDSRLLQAIKNIGFQYPTLIQSHAIPLALQQKRDIIAKAATGSGKTLAYLIPVIETILEYKKTIDNGEENGTLGIILVPTRELAQQVYNVLEKLVLYCSKDIRTLNISSDMSDSVLSTLLMDQPEIIVGTPGKLLDLLQTKINSISLNELKFLVVDEVDLVLTFGYQDDLNKIGEYLPLKKNLQTFLMSATLNDDIQALKQKFCRSPAILKFNDEEINKNQNKLLQYYVKVSEFDKFLLCYVIFKLNLIKGKTLIFVNNIDRGYRLKLVMEQFGIKSCILNSELPVNSRQHIVDQFNKNVYQLLIATDDTEYIKEEDDEIEEGHNTENQEEKSLEGEPENDKKPSKKKKVQVKKDKEYGVSRGVDFKNVACVLNFDLPTTAKSYVHRVGRTARGGKTGTAISFVVPLKEFGKHKPSMLQTAKKDERILSRIIKQQSKLGLELQPYKFDQKQVEAFRYRMEDGFRAVTQVAIREARVKELKQELLASEKLKRHFEENPKELQSLRHDKELHPARVQQHLKRVPDYLLPESARGNGTKVKFVPFHNAKKRHSHKKGRVSKPKNGKVDPLKNFK
B7: Nop4 (protein, UniProt P37838 1-685)
chain: MEETIENVEVPSSNVSKQNDDGLDMKTLFVRSIPQDVTDEQLADFFSNFAPIKHAVVVKDTNKRSRGFGFVSFAVEDDTKEALAKARKTKFNGHILRVDIAKRRDRSKKTSEVVEKSTPESSEKITGQNNEDEDDADGEDSMLKGKPKLIIRNMPWSCRDPVKLKKIFGRYGTVVEATIPRKRDGKLCGFAFVTMKKISNCRIALENTKDLKIDGRKVAVDFAVQKNRWEDYKKAQPEMNDKDDNESGNEDAEENHDDEEDENEEEDRQVDQASKNKESKRKAQNKREDFSVFVRNVPYDATEESLAPHFSKFGSVKYALPVIDKSTGLAKGTAFVAFKDQYTYNECIKNAPAAGSTSLLIGDDVMPEYVYEGRVLSITPTLVREDAGRMAEKNAAKRKEALGKAPGEKDRRNLYLLNEGRVVEGSKMADLLTNTDMEIREKSYKLRVEQLKKNPSLHLSMTRLAIRNLPRAMNDKALKALARKAVVEFATEVKNKERHPLSKEEIIRSTKEKYKFMGPDEIEAQKKKDKKSGVVKQAKVIMEVKGSTAGRSRGYGFVEFRDHKNALMGLRWLNCHAVTSDEILEGLNDDEKKQVDNDLGKGRRLCVEFAIENSNVVKRRREQLKQARTKRTRPDNEDTGDVGESENKKPKKEEATTPTNPDDKKMGDDIKRIIGFKRKRKHAKK
B8: Utp18 (protein, UniProt P40362 1-594)
chain: MTMATTAMNVSVPPPDEEEQLLAKFVFGDTTDLQENLAKFNADFIFNEQEMDVEDQEDEGSESDNSEEDEAQNGELDHVNNDQLFFVDDGGNEDSQDKNEDTMDVDDEDDSSSDDYSEDSEEAAWIDSDDEKIKVPILVTNKTKKLRTSYNESKINGVHYINRLRSQFEKIYPRPKWVDDESDSELDDEEDDEEEGSNNVINGDINALTKILSTTYNYKDTLSNSKLLPPKKLDIVRLKDANASHPSHSAIQSLSFHPSKPLLLTGGYDKTLRIYHIDGKTNHLVTSLHLVGSPIQTCTFYTSLSNQNQQNIFTAGRRRYMHSWDLSLENLTHSQTAKIEKFSRLYGHESTQRSFENFKVAHLQNSQTNSVHGIVLLQGNNGWINILHSTSGLWLMGCKIEGVITDFCIDYQPISRGKFRTILIAVNAYGEVWEFDLNKNGHVIRRWKDQGGVGITKIQVGGGTTTTCPALQISKIKQNRWLAVGSESGFVNLYDRNNAMTSSTPTPVAALDQLTTTISNLQFSPDGQILCMASRAVKDALRLVHLPSCSVFSNWPTSGTPLGKVTSVAFSPSGGLLAVGNEQGKVRLWKLNHY

Legend:
Ssf1-TAP (S. cerevisiae) = target: T1, Ssf1-TAP (S. cerevisiae) (UniProt P38789); test: affinity purification with mass spectrometry; tandem-affinity purification from yeast lysate, elution from Calmodulin Sepharose with 0.8% ammonium hydroxide; label-free semi-quantitative LC-MS/MS (LFQ, MaxQuant); for Figure 8A, B from wild-type and Δrbp95 strains
T1 sequence: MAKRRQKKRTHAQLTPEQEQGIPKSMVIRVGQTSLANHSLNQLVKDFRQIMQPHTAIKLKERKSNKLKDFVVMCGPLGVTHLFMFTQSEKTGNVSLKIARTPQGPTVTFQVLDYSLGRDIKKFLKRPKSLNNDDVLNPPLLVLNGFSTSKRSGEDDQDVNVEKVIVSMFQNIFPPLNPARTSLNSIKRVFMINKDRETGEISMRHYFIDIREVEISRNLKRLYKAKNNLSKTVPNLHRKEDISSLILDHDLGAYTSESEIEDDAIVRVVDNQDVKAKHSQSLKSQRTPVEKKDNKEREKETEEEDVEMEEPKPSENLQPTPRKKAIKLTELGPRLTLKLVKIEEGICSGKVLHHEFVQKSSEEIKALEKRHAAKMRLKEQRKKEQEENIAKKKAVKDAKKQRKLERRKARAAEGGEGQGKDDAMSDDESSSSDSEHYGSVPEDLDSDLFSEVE

[1] = target: T2, Rbp95-TAP (S. cerevisiae) (UniProt P25617); test: affinity purification with mass spectrometry; tandem-affinity purification from yeast lysate (IgG Sepharose, TEV elution, Calmodulin Sepharose, EGTA elution); 50 mM Tris-HCl pH 7.5, 100 mM NaCl, 1.5 mM MgCl2, 0.1% NP-40, 1 mM DTT; selected Coomassie-stained bands excised and identified by LC-MS/MS
T2 sequence: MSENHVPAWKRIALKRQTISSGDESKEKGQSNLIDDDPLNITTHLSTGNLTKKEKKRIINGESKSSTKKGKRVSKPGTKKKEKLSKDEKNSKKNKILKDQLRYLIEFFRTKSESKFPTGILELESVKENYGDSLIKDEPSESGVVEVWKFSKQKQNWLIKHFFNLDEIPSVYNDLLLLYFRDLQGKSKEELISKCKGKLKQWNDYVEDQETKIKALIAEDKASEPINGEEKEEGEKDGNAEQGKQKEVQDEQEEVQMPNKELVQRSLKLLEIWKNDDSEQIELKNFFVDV

Noc2-TAP (S. cerevisiae) = target: T3, Noc2-TAP (S. cerevisiae) (UniProt P39744); test: affinity purification with mass spectrometry; tandem-affinity purification from yeast lysate, elution from Calmodulin Sepharose with 0.8% ammonium hydroxide; label-free semi-quantitative LC-MS/MS (LFQ, MaxQuant); for Figure 8A, B from wild-type and Δrbp95 strains
T3 sequence: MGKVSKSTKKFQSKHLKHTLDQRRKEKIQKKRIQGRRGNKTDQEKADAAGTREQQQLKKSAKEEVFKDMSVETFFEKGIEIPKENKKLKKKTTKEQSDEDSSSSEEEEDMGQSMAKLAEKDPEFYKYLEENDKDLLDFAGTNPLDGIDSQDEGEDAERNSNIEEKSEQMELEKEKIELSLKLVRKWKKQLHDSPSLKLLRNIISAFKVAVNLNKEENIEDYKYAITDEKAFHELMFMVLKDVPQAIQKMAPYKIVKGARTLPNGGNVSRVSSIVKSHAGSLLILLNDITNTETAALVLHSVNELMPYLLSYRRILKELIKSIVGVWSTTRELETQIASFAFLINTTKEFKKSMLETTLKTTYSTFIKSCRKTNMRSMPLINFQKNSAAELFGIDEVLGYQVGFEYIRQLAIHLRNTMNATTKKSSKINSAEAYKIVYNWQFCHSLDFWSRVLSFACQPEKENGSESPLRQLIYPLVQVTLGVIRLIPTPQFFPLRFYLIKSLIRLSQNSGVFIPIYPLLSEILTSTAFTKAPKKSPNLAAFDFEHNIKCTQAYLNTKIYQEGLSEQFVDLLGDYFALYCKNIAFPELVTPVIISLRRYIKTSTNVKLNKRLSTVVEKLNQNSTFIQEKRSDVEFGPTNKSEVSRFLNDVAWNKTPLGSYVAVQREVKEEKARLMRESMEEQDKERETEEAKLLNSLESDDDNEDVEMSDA

[2] = target: T2, Rbp95-TAP (S. cerevisiae); test: as above

Row | Molecule | binding (Ssf1-TAP (S. cerevisiae)) | binding [1] | binding (Noc2-TAP (S. cerevisiae)) | binding [2]
1 | Rrp5 (from UniProt Q05022 1-1729) | binds | binds | – | –
2 | Rpl8 (from UniProt P17076) | binds | – | binds | –
3 | Cbf5 (from UniProt P33322 1-483) (enzyme) | – | binds | – | –
4 | Nop1 (from UniProt P15646 1-327) (enzyme) | – | binds | – | –
5 | Nop58 (from UniProt Q12499 1-511) | – | binds | – | –
6 | B1 | – | binds | – | –
7 | B2 | binds | – | binds | –
8 | B3 | binds | – | binds | binds
9 | B4 | binds | – | binds | binds
10 | B5 | – | binds | – | binds
11 | B6 | – | binds | binds | binds
12 | B7 | binds | – | – | binds
13 | B8 | binds weakly | – | – | –
